Test results published in PubChem BioAssay AID504465 (National Center for Advancing Translational Sciences (NCATS), 2011).
About 210 (10%) of roughly 2,100 compounds were called active. Inconclusive results, whose numbers are uncertain, are shown with a selection of clear calls. The call rests on the fitted dose curve; in most records, active means well fitted inhibition curve with a large enough effect; inconclusive means small, poorly fitted or top-dose-only effect, or effect the other way; inactive means no such curve, though single readings can be large or run the other way. Where the call is inconclusive, the potency comes from a doubtful curve fit.

Assay: IN Cell qHTS Assay for Inhibitors of the mTORC1 Signaling Pathway in MEF (Tsc2-/-, p53-/-) Cells: Sytravon; further: nearly all actives have a fitted effect of over 60% in size
Conditions: phospho-rpS6 immunofluorescence, 24 h; activity, negative = inhibition: at 38.3 µM (top of the series)
How it was run: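 Immunofluorescence of rpS6 phosphorylation (Ser235/236) in mouse embryonic fibroblasts lacking Tsc2 and p53, after 24 h compound exposure; Hoechst-normalized signal imaged, each well scored as % active cells relative to rapamycin (7.5 nM) and DMSO controls.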
Potency means the concentration at half of the fitted maximal effect.

| SMILES | Potency | activity, negative = inhibition |
| --- | --- | --- |
| CCN(CC)CCCNC(=O)c1ccc2c(Cl)c3c(nc2c1)CCCC3 | inconclusive: 18.5 µM [falling, partial curve, poor fit] |  |
| CCOc1ccccc1NC(=O)c1c(NCc2sccc2C)sc2c1CCC(C)C2 (stereo unspecified) | inconclusive: 23.3 µM [falling, single point] |  |
| CCCN(C(=O)Cn1ncc2c([nH]c3ccc(C)cc32)c1=O)c1ccccc1C | inactive |  |
| CCCCC1CCC(C(=O)N2CC(=O)Nc3ccc(Cl)cc3C2c2ccc(F)cc2)CC1 (stereo unspecified) | inconclusive: 14.7 µM [falling, single point] |  |
| CCOc1ccc(-n2nc3ccc(NC(=O)c4ccc(-c5cccc(Cl)c5)o4)cc3n2)cc1 | active: 13.1 µM |  |
| O=C(NCCCN1CCN(c2ccccc2F)CC1)c1cc2c(s1)-c1ccccc1OC2 | inconclusive: 23.3 µM [falling, single point] |  |
| CCN(C(=O)CSc1nc2ccccc2n1CC(=O)Nc1ccc(F)cc1F)c1ccccc1 | inconclusive: 5.85 µM [falling, partial curve, poor fit] |  |
| CCOC(=O)c1c(-c2ccccc2)oc2ccc(N(C(C)=O)S(=O)(=O)c3ccc(C)cc3)cc12 | inconclusive: 3.29 µM [falling, full curve, poor fit] |  |
| CCN(C(=O)c1cc2c(=O)oc3ccc(C)cc3c2s1)c1ccccc1F | inactive |  |
| CCOc1ccc(-c2oc3cc(Cl)ccc3c(=O)c2O)cc1OC | inconclusive: 14.7 µM [falling, partial curve, poor fit] |  |
| COc1ccc(CNc2oc(/C=C/c3cccc(OC)c3)nc2C#N)cc1 | inactive |  |
| Cc1ccc(Cn2c(=O)n(-c3ccc(C)c(C)c3)c(=O)c3c(C)c(C)sc32)cc1 |  | inconclusive: 10.3% [activator] |
| CN(C)C1(CNC(=O)COc2ccc(C(C)(C)C)cc2)CCCCC1 | inactive |  |
| CCCCCn1c(-c2cccc(C)c2)nc2ccccc21 | inactive |  |
| COc1cc(Br)ccc1C1C(C(=O)Nc2ccc(C)cc2C)=C(C)Nc2nnnn21 (stereo unspecified) | inconclusive: 5.85 µM [falling, full curve, poor fit] |  |
| C=Cc1ccc(Cn2c(C(=O)O)c(CNCc3ccccc3)c3ccc(OC)cc32)cc1 | inconclusive: 26.1 µM [falling, single point] |  |
| COc1ccc(C)cc1NC(=O)CCNS(=O)(=O)c1cccc2nonc12 | inconclusive: 18.5 µM [falling, single point] |  |
| CCOC(=O)c1cnc2ccc(C(=O)OC)cc2c1Nc1ccc(N2CCOCC2)cc1 | inconclusive: 20.7 µM [falling, single point] |  |
| CCN1CCN(c2cc(C)c3cc(NC(=O)/C=C/c4cccc(OC)c4OC)ccc3n2)CC1 | inconclusive: 5.21 µM [falling, partial curve, poor fit] |  |
| COc1cccc(-c2oc3ccc(C)cc3c(=O)c2O)c1 | inconclusive: 1.65 µM [activator, single point] |  |
| O=S(=O)(c1ccc(-c2csc(=Nc3ccc(F)cc3)n2CCCCCCO)cc1)N1CCCC1 | inconclusive: 13.1 µM [falling, single point] |  |
| COc1cc(NC(=O)Cn2ccc3ccccc3c2=O)cc(OC)c1OC | inactive |  |

| SMILES | Potency | activity, negative = inhibition |
| --- | --- | --- |
| CCCOc1ccc(C(=O)Nc2ccc(NC(=O)c3ccccc3)c(Br)c2)cc1 | inconclusive: 20.7 µM [falling, single point] |  |
| CC(C)CN(CC(C)C)S(=O)(=O)c1ccc(C(=O)Nc2sc3c(c2C(N)=O)CC(C)(C)NC3(C)C)cc1 | inactive |  |
| CCOc1ccccc1NC(=O)c1c(NCc2cccs2)sc2c1CCC(C)C2 (stereo unspecified) | inactive |  |
| CCOc1ccc(C2CC(=O)Nc3cc4c(cc32)OCO4)cc1OC (stereo unspecified) | inconclusive: 2.61 µM [falling, single point] |  |
| Cc1c(Cl)cccc1NC(=O)Cn1cc(C(=O)c2cccs2)c2ccccc21 | inconclusive: 14.7 µM [falling, single point] |  |
| CCCn1c(NCc2ccc(N(CC)CC)cc2)nc2ccccc21 | inconclusive: 26.1 µM [falling, single point] |  |
| Cc1ccccc1C(=O)Nc1c(C)nc(Nc2ccccc2)nc1Nc1ccccc1 | inconclusive: 14.7 µM [falling, single point] |  |
| COc1ccc(NC(=O)c2c(C)oc3ccc(O)c(CN4CCCCCC4)c23)cc1Cl | inconclusive: 20.7 µM [falling, single point] |  |
| Cc1cccc(C(=O)Nc2c(C(=O)NCc3ccc(Cl)cc3)sc3nc(C)cc(C)c23)c1 | inactive |  |
| O=C(NCc1ccccc1)c1nc(S(=O)(=O)Cc2ccccc2)ncc1Cl | active: 18.5 µM |  |
| O=C(NCCc1ccccc1Cl)c1ccc2c(=O)n(-c3ccccc3)c(=O)[nH]c2c1 | inactive |  |
| O=C(CSc1nc(Nc2ccc(F)cc2)c2ccccc2n1)c1ccc(F)cc1 | inconclusive: 14.7 µM [falling, partial curve, poor fit] |  |
| COc1cccc(C2=CC(c3cc(Br)ccc3F)n3nnnc3N2)c1 (stereo unspecified) | inactive |  |
| O=C(CCCn1c(=O)[nH]c2ccc(Br)cc2c1=O)N1CCN(c2cccc(Cl)c2)CC1 | inconclusive: 14.7 µM [falling, single point] |  |
| Cc1ccc(NCc2cc3cc4c(cc3n(CC(=O)Nc3ccc(C)cc3)c2=O)OCCO4)cc1 | active: 4.65 µM |  |
| CCOc1cc(C(=O)Nc2ccc(-c3cn4cccnc4n3)cc2)cc(OCC)c1OCC | inconclusive: 0.736 µM [falling, full curve, poor fit] |  |
| CN(C)CCCNc1cc(N2CCN(C3CCCCC3)CC2)c2noc3c2c1C(=O)c1ccccc1-3 | inconclusive: 11.7 µM [falling, partial curve, poor fit] |  |
| CCCCn1c(=N)n(CCCOc2ccc(F)cc2)c2ccccc21 | inconclusive: 14.7 µM [falling, single point] |  |
| COC(=O)c1c(C)oc2ccc(N(C(=O)c3ccncc3)S(=O)(=O)c3ccc(OC)cc3)cc12 | inconclusive: 2.93 µM [falling, partial curve, poor fit] |  |
| O=C(Nc1ccc(Cl)cc1)C1CCC(CNS(=O)(=O)c2ccc(Br)s2)CC1 (stereo unspecified) | inactive |  |
| CCCOC(=O)c1cccc(NC(=O)c2c(-c3ccccc3Cl)noc2C)c1 | inactive |  |
| O=S(=O)(c1ccc(F)cc1)N(CC(O)Cn1c2ccccc2c2ccccc21)c1ccccc1 (stereo unspecified) | inconclusive: 26.1 µM [falling, single point] |  |

Some of these compounds in order of molecular weight, largest number first.

| SMILES | Potency | activity, negative = inhibition |
| --- | --- | --- |
| CC(C)CN(CC(C)C)S(=O)(=O)c1ccc(C(=O)Nc2sc3c(c2C(N)=O)CC(C)(C)NC3(C)C)cc1 | inactive |  |
| CCOc1ccccc1NC(=O)c1c(NCc2cccs2)sc2c1CCC(C)C2 (stereo unspecified) | inactive |  |
| CCOc1ccc(C2CC(=O)Nc3cc4c(cc32)OCO4)cc1OC (stereo unspecified) | inconclusive: 2.61 µM [falling, single point] |  |

Continuation.

| SMILES | Potency | activity, negative = inhibition |
| --- | --- | --- |
| CSc1ccc(C2C(C(=O)Nc3ccccc3)=C(C)Nc3nc4ccccc4n32)cc1 (stereo unspecified) | inconclusive: 26.1 µM [falling, partial curve, poor fit] |  |
| CCOc1ccccc1CNC(=O)c1ccc(CS(=O)Cc2cccc(Cl)c2)o1 (stereo unspecified) | inconclusive: 23.3 µM [falling, single point] |  |
| O=S(=O)(NCC(c1cccs1)S(=O)(=O)c1ccccc1)c1ccccc1 (stereo unspecified) | inconclusive: 0.0927 µM [falling, full curve, poor fit] |  |
| CCOc1ccccc1CNC(=O)c1ccc(-n2c(C)cc3c2CCC(C)C3)cc1 (stereo unspecified) | inconclusive: 26.1 µM [falling, partial curve, poor fit] |  |
| Cc1ccc(F)cc1NC(=O)CSc1nc(-c2cccs2)cc(C(F)(F)F)n1 | active: 11.7 µM |  |
| CC(=O)c1cccc(NS(=O)(=O)c2ccc3[nH]c4c(c3c2)CCCCC4)c1 | inactive |  |
| COc1ccc(Cn2c(C(=O)O)c(CNCc3ccc(SC)cc3)c3ccc(OC)cc32)cc1 | inconclusive: 18.5 µM [falling, partial curve, poor fit] |  |
| COc1ccc(OC)c(S(=O)(=O)NCC(c2cccs2)S(=O)(=O)c2ccc(F)cc2)c1 (stereo unspecified) | inconclusive: 11.7 µM [falling, single point] |  |
| COc1ccc(C)cc1NC(=O)c1cc(S(=O)(=O)N2CCN(c3cccc(C)c3C)CC2)ccc1F | inactive |  |
| Cc1ccc(-c2nc(N3CCCC(C)C3)c3ccccc3n2)cc1 (stereo unspecified) | inactive |  |
| COC(=O)C1=C(C)N(C(C)C)C(=O)C1(NC(=O)c1ccc(C(C)(C)C)cc1)C(F)(F)F (stereo unspecified) | active: 20.7 µM |  |
| CCC(C(=O)Nc1ccc(C)c(Cl)c1)n1c(=O)c(-c2ccccc2NC(C)=O)nc2ccccc21 (stereo unspecified) | inactive |  |
| O=C(NCCc1ccccc1)c1ccc(Cn2c(SCc3ccccc3)nc3cccnc32)cc1 | inactive |  |
| CCCOc1ccc(Oc2nc(NCC(C)C)nc(N(C)C)n2)nn1 | inactive |  |
| CCS(=O)(=O)c1ncc(Cl)c(C(=O)NCc2ccccc2)n1 | active: 3.29 µM |  |
| COc1ccc(/C=C/C(=O)Nc2ccc3nc4c(c(Nc5ccc(OC)c(OC)c5)c3c2)CCCC4)cc1 | active: 3.69 µM |  |
| Cc1ccc(NC(=O)CSc2ccc(-c3ccccn3)nn2)cc1F | inconclusive: 11.7 µM [falling, single point] |  |
| Cc1noc2ncnc(N3CCN(c4ccccc4F)CC3)c12 | inactive |  |
| CCCCN(CC)CCNC(=O)C1CCN(c2nnc(C)c3c(C)n(-c4ccc(C)cc4)nc23)CC1 | inconclusive: 10.4 µM [falling, partial curve, poor fit] |  |
| CCN(CC)c1ccc(NS(=O)(=O)c2ccc(-c3coc(C)n3)cc2)c(C)c1 | inconclusive: 11.7 µM [falling, partial curve, poor fit] |  |
| CCOc1ccc(-c2cc(C(=O)NCCc3ccccc3)c3c(-c4ccc(C)cc4)[nH]nc3n2)cc1 | inconclusive: 5.21 µM [falling, partial curve, poor fit] |  |
| COc1ccc(/C=C/C(=O)Nc2ccc3nc(N4CCCCC4)cc(C)c3c2)cc1OC | inconclusive: 5.85 µM [falling, full curve, poor fit] |  |

Rewritten with each value named: entries from further up.
CCN(CC)CCCNC(=O)c1ccc2c(Cl)c3c(nc2c1)CCCC3
  Potency: inconclusive: 18.5 µM [falling, partial curve, poor fit]
CCOc1ccccc1NC(=O)c1c(NCc2sccc2C)sc2c1CCC(C)C2 (stereo unspecified)
  Potency: inconclusive: 23.3 µM [falling, single point]
CCCN(C(=O)Cn1ncc2c([nH]c3ccc(C)cc32)c1=O)c1ccccc1C
  Potency: inactive
